Assay results reported in paper PMC4081103.
Construct, isoform or probe ends are uncertain for at least one entry. For some of these results: Weaker means in comparison with the reference protein, sequence or condition of that experiment. For some of these results: At least one verdict rests on a figure or table, not on a statement of the authors.

How the values were obtained:
[1] = system: RPA heterotrimer (RPA1, RPA2, RPA3); assay: competition with a labelled probe; settings: free DNA increased, PBS, 20 ul, 20-23 C (room temperature), 30 min, 1% agarose gel in 0.5x TBE at 4 C, pH not stated, recombinant protein, label: 5' Cy5.5, single-stranded DNA
[2] = system: RPA heterotrimer (RPA1, RPA2, RPA3); assay: EMSA; settings: no PAR, PBS, 20 ul, 20-23 C (room temperature), 30 min, 1% agarose gel in 0.5x TBE at 4 C, pH not stated, recombinant protein, label: 5' Cy5.5, single-stranded DNA

Sequence: TTTTTTTTTTTTTTTTTTTTTTTTTTTTTTTTTTTTTTTTTTTTTTTTTT [Cy5.5-oligodT 50-mer]
- binding result ([1]; 7 nM RPA pre-incubated with 2.5 nM DNA, then high PAR (lanes 8-11, 64-192 ng)): binds more weakly
- binding result ([1]; higher PAR (lanes 5-11) mixed with DNA before RPA): binds more weakly
- binding result ([2]; 1.7 nM RPA, 1 nM DNA): binds
- binding result ([2]; 7 nM RPA pre-incubated with 2.5 nM DNA): binds
